# Reference: the supplement of paper PMC6411743
# Chains of the proteins cited; added tags and fusions are not shown. Lines headed by an entry give the natural chain unless they say otherwise; changes in a name come on top.
# UniProt O43747: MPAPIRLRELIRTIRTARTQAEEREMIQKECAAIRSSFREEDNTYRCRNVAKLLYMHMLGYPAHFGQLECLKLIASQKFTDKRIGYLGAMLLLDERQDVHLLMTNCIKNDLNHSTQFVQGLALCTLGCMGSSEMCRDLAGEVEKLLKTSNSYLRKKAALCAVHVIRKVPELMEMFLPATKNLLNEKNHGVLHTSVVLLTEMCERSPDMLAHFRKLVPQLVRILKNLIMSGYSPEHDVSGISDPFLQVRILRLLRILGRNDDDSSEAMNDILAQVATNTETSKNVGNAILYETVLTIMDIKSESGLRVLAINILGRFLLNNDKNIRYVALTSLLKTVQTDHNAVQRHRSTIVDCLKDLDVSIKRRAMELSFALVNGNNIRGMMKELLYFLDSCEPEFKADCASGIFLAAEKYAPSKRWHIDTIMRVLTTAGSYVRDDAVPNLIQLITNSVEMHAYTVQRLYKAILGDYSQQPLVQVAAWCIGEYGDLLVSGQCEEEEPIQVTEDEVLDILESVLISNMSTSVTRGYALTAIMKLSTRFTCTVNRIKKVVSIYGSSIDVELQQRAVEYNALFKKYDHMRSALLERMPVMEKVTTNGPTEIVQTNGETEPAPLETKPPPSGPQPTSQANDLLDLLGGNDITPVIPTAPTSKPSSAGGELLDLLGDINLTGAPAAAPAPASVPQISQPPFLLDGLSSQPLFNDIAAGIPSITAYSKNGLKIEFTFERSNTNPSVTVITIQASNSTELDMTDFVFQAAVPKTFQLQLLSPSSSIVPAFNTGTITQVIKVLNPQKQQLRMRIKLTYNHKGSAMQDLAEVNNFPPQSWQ
# UniProt P28340: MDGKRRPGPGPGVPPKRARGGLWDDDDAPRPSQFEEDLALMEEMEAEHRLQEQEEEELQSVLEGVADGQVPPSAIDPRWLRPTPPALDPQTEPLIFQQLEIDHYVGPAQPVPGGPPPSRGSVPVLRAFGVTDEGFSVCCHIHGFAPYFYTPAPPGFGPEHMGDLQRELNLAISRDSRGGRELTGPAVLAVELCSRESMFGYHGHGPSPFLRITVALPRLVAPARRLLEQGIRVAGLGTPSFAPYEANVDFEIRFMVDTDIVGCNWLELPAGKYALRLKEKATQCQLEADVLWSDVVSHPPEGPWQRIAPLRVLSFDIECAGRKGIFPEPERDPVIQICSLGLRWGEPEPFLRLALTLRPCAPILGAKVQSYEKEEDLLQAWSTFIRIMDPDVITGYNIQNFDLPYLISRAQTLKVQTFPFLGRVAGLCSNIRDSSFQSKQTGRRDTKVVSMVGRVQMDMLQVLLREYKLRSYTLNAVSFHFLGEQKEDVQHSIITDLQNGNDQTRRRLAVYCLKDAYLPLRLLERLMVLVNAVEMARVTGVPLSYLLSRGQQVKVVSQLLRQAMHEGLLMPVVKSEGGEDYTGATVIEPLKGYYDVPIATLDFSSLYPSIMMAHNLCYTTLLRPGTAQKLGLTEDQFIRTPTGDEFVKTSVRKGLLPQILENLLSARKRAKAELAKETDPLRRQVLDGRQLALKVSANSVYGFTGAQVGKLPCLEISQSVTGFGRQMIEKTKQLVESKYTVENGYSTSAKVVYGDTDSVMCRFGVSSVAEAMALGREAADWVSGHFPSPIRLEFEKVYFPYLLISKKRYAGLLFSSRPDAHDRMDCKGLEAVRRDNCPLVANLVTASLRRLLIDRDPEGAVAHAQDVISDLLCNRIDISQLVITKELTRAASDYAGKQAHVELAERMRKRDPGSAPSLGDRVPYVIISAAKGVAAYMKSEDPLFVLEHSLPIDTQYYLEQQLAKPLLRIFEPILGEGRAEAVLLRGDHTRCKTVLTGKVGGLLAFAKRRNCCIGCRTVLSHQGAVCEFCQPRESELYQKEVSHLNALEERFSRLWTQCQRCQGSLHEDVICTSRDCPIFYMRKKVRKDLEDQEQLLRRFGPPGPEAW
# UniProt O14732: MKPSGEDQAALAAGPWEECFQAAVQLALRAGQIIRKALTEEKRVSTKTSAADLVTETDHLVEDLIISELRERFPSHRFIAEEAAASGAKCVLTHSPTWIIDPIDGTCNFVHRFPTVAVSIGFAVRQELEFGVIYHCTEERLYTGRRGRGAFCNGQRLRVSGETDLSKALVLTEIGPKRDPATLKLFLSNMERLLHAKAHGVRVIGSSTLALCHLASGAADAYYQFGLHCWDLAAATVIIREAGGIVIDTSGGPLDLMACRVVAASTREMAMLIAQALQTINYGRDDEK
# UniProt O43427: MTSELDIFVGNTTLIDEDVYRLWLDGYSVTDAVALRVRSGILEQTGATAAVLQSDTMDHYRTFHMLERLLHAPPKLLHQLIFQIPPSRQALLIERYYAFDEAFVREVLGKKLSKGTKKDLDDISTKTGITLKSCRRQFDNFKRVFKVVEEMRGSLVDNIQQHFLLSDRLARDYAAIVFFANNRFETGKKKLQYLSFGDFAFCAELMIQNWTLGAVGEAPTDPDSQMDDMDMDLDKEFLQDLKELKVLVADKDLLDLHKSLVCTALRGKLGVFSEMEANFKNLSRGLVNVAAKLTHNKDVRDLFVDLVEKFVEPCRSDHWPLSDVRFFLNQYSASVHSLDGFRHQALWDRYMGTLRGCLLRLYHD
# UniProt O00429, whole entry: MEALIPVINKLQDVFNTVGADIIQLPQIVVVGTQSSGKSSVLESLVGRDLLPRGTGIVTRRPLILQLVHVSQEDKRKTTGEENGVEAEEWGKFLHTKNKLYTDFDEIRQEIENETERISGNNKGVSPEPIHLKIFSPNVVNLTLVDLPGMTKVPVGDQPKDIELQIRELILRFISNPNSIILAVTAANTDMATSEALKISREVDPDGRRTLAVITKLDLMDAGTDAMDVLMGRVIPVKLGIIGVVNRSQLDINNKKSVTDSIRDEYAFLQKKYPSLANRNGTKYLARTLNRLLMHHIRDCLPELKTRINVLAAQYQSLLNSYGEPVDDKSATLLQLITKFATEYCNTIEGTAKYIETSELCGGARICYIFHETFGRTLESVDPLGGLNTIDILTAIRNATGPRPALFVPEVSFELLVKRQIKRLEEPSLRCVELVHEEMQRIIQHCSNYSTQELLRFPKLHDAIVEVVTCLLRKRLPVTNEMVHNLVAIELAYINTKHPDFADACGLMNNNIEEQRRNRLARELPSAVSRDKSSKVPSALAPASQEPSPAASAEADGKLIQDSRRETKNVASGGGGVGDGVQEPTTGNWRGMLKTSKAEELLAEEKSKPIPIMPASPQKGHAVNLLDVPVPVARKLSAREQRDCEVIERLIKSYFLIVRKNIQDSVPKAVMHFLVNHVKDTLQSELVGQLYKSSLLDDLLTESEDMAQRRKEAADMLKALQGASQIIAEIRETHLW
# UniProt O15151: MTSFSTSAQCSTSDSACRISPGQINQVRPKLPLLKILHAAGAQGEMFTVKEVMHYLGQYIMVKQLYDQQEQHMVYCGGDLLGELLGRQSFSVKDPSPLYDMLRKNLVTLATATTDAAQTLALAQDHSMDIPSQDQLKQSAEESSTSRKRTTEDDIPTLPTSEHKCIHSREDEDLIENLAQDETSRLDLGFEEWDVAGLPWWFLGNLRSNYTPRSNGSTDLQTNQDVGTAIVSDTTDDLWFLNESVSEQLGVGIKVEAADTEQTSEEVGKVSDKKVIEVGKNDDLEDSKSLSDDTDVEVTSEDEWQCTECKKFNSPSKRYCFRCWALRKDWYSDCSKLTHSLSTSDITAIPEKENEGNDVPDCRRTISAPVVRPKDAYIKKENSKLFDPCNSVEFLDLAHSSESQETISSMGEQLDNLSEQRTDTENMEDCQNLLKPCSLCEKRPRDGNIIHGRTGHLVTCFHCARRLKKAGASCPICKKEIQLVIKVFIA
# UniProt O43524: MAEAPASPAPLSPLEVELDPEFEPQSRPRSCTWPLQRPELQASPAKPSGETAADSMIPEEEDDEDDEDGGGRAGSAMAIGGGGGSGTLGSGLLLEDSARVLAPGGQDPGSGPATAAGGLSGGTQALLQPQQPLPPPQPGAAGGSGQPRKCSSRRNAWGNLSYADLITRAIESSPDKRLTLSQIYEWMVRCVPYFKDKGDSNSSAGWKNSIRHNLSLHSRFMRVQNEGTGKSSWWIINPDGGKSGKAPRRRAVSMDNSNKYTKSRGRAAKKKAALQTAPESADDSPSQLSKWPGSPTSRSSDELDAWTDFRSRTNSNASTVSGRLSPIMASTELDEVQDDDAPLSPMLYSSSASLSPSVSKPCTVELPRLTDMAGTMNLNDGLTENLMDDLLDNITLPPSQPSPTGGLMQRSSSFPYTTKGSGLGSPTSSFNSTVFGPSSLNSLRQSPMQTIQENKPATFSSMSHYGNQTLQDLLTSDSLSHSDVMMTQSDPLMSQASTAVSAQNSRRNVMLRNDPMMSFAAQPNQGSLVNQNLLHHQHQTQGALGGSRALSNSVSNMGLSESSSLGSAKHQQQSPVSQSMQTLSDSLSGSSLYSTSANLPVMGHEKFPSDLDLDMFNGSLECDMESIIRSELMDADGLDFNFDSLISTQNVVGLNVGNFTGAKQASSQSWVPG
# UniProt P52272: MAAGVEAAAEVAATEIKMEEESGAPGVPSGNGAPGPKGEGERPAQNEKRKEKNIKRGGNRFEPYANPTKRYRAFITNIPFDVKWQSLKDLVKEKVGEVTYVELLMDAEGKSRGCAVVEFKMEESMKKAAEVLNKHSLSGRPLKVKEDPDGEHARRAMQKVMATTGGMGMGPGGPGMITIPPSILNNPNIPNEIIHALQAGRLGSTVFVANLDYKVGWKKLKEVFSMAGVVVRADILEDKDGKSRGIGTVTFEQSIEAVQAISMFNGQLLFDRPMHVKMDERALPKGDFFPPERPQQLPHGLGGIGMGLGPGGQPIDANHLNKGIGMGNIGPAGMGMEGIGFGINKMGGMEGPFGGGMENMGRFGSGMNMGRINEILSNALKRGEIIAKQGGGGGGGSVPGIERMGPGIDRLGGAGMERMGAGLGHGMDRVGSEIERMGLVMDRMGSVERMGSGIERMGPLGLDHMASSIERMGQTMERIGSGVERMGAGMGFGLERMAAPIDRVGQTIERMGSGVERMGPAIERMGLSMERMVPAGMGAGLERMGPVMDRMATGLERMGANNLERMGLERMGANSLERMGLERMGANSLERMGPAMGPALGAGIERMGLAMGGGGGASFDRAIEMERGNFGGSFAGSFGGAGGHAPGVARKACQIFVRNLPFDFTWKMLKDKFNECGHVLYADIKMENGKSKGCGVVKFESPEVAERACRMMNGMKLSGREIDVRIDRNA
# UniProt O15169, whole entry: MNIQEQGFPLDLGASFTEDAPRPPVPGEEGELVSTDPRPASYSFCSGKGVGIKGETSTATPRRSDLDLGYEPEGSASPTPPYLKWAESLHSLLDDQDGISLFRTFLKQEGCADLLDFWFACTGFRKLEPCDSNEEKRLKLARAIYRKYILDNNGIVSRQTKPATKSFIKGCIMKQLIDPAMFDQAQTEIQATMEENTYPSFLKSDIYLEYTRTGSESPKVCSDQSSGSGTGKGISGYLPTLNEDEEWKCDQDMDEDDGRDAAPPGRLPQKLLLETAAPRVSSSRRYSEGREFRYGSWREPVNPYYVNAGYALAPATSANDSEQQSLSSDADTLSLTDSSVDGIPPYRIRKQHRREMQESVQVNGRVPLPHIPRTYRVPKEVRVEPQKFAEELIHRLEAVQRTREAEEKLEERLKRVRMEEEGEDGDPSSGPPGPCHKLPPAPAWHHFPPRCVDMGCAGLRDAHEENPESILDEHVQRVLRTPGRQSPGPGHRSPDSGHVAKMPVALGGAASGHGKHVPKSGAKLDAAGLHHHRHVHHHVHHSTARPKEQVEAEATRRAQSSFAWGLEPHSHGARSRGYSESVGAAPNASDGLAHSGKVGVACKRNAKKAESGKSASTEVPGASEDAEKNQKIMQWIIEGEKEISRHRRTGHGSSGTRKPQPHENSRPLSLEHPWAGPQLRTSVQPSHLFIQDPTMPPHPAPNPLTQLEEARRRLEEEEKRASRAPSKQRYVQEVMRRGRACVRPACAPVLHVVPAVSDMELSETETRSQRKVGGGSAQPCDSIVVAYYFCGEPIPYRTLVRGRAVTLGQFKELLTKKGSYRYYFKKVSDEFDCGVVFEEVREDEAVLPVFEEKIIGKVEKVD
# UniProt O15392, whole entry: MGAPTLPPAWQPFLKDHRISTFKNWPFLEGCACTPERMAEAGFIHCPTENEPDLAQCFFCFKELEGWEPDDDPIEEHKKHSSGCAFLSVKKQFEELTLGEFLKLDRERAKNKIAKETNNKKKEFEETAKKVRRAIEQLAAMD
# UniProt O00151: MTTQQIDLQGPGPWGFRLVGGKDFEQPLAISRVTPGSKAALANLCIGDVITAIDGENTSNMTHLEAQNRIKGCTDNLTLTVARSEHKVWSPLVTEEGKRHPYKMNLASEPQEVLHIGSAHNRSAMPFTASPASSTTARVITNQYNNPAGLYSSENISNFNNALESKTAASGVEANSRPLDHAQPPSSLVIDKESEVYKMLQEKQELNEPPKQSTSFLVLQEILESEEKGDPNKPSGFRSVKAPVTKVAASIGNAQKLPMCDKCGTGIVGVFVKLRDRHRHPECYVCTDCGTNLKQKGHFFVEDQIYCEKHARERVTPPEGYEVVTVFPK
# ± gives the standard deviation of the averaged measurements. This is a selection; strong and weak results do not stand in their true shares. Small differences around the control level are noise.
# Compound: Nc1ncnc2c1ncn2[C@@H]1O[C@H](COP(=O)(O)OP(=O)(O)OP(=O)(O)O)[C@@H](O)[C@H]1O [adenosine triphosphate]
# Assay: NP40-soluble protein abundance relative to vehicle (solubility fold change) (ratio); higher = more soluble protein in presence of ATP
# Summary of the method: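 Data come from three independent experiments in which Dounce-homogenised Jurkat crude lysate was treated at eight concentrations from 0.1 to 10 mM. Treatment ran 10 min at room temperature and then 3 min at 37 °C, after which 0.8% NP40 and benzonase were added for 60 min at 4 °C before ultracentrifugation. The supernatant underwent TMT labelling and LC-MS/MS, and vsn-normalised intensities were expressed as fold change against the detergent-processed vehicle in each replicate.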
Target,NP40-soluble protein abundance (concentration: 0.1mM),NP40-soluble protein abundance (concentration: 0.5mM),NP40-soluble protein abundance (concentration: 1mM),NP40-soluble protein abundance (concentration: 2mM),NP40-soluble protein abundance (concentration: 4mM),NP40-soluble protein abundance (concentration: 6mM),NP40-soluble protein abundance (concentration: 8mM),NP40-soluble protein abundance (concentration: 10mM)
M0R3A8 and related entries (UniProt Q9NWS0),1 ± 0.04,0.951 ± 0.02,,,,,,
UniProt O43747 and related entries,1 ± 0.059,0.983 ± 0.037,,,,,,
M0R2B7 and related entries (UniProt P28340),1.05 ± 0.055,1.01 ± 0.037,,,,,,
KIF1C (UniProt O43896),1.01 ± 0.043,1.05 ± 0.051,,,,,,
UniProt O14732 and related entries,1.0367 ± 0.00036,1.04 ± 0.042,,,,,,
CHMP2A (UniProt O43633),0.96 ± 0.051,0.929 ± 0.11,,,,,,
UniProt O43427 and related entries,1.1 ± 0.078,1.07 ± 0.098,,,,,,
SPTBN2 (UniProt O15020),0.964 ± 0.018,0.961 ± 0.034,,,,,,
SCO2 (UniProt O43819),1.07 ± 0.068,1.03 ± 0.032,,,,,,
UniProt O00429 and related entries,0.994 ± 0.028,0.987 ± 0.012,,,,,,
SLC33A1 (UniProt O00400),1.07 ± 0.14,1.04 ± 0.11,,,,,,
UniProt O43504,0.924 ± 0.099,0.918 ± 0.13,,,,,,
UniProt O43172-2|O43172,1.1 ± 0.031,1.14 ± 0.051,,,,,,
UniProt O15151 and related entries,1.28 ± 0.29,1.12 ± 0.091,,,,,,
UniProt O43318-2|O43318,1 ± 0.0066,1.01 ± 0.038,,,,,,
FANCG (UniProt O15287),1.13 ± 0.025,0.954 ± 0.14,,,,,,
UniProt O14965 and related entries,1.05 ± 0.027,1.05 ± 0.051,,,,,,
SCAMP2 (UniProt O15127),0.982 ± 0.065,0.969 ± 0.051,,,,,,
MED14 (UniProt O60244),0.976 ± 0.024,1 ± 0.044,,,,,,
PAPSS1 (UniProt O43252),1.04 ± 0.051,1.03 ± 0.043,,,,,,
FOXO3 (UniProt O43524),0.918 ± 0.065,0.908 ± 0.033,,,,,,

# Reformatted: entries from further up
Target	NP40-soluble protein abundance (concentration: 0.1mM)	NP40-soluble protein abundance (concentration: 0.5mM)	NP40-soluble protein abundance (concentration: 1mM)	NP40-soluble protein abundance (concentration: 2mM)	NP40-soluble protein abundance (concentration: 4mM)	NP40-soluble protein abundance (concentration: 6mM)	NP40-soluble protein abundance (concentration: 8mM)	NP40-soluble protein abundance (concentration: 10mM)
KIF1C (UniProt O43896)	1.01 ± 0.043	1.05 ± 0.051						
UniProt O14732 and related entries	1.0367 ± 0.00036	1.04 ± 0.042						
CHMP2A (UniProt O43633)	0.96 ± 0.051	0.929 ± 0.11						
UniProt O43427 and related entries	1.1 ± 0.078	1.07 ± 0.098						
SPTBN2 (UniProt O15020)	0.964 ± 0.018	0.961 ± 0.034						
SCO2 (UniProt O43819)	1.07 ± 0.068	1.03 ± 0.032						
UniProt O00429 and related entries	0.994 ± 0.028	0.987 ± 0.012						
SLC33A1 (UniProt O00400)	1.07 ± 0.14	1.04 ± 0.11						
UniProt O43504	0.924 ± 0.099	0.918 ± 0.13						
UniProt O43172-2|O43172	1.1 ± 0.031	1.14 ± 0.051						
UniProt O15151 and related entries	1.28 ± 0.29	1.12 ± 0.091						

# Further entries:

Target,NP40-soluble protein abundance (concentration: 0.1mM),NP40-soluble protein abundance (concentration: 0.5mM),NP40-soluble protein abundance (concentration: 1mM),NP40-soluble protein abundance (concentration: 2mM),NP40-soluble protein abundance (concentration: 4mM),NP40-soluble protein abundance (concentration: 6mM),NP40-soluble protein abundance (concentration: 8mM),NP40-soluble protein abundance (concentration: 10mM)
UniProt O43148 and related entries,1.02 ± 0.061,1.04 ± 0.084,,,,,,
URB1 (UniProt O60287),1.1 ± 0.013,1.15 ± 0.022,1.29 ± 0.067,1.41 ± 0.043,1.65 ± 0.057,1.7 ± 0.12,1.94 ± 0.12,2.15 ± 0.084
SPTLC1 (UniProt O15269),1.01 ± 0.054,1 ± 0.035,0.993 ± 0.026,0.998 ± 0.032,0.997 ± 0.027,0.93 ± 0.096,0.998 ± 0.024,1 ± 0.049
M0QZM1 and related entries (UniProt P52272),0.9963 ± 0.0089,1.02 ± 0.043,0.988 ± 0.037,0.999 ± 0.016,1.01 ± 0.032,1.07 ± 0.014,1.04 ± 0.019,1.06 ± 0.024
MAN2B1 (UniProt O00754),0.972 ± 0.053,0.956 ± 0.033,0.94 ± 0.027,0.948 ± 0.017,0.957 ± 0.023,0.887 ± 0.057,0.917 ± 0.038,0.93 ± 0.018
UQCRQ (UniProt O14949),0.858 ± 0.17,0.833 ± 0.23,,,,,,
M0R0F0 and related entries (UniProt P46782),0.892 ± 0.13,0.891 ± 0.085,,,,,,
UniProt O15169 and related entries,1.06 ± 0.27,0.92 ± 0.092,1.05 ± 0.17,0.887 ± 0.14,0.982 ± 0.19,1.07 ± 0.18,1 ± 0.047,1.15 ± 0.21
UniProt O15392 and related entries,1.71 ± 1.4,0.926 ± 0.21,0.961 ± 0.1,2.09 ± 1.6,1.13 ± 0.09,1.23 ± 0.031,1.26 ± 0.092,1.31 ± 0.16
UniProt O43865,0.989 ± 0.069,1.03 ± 0.034,0.982 ± 0.1,0.965 ± 0.063,0.963 ± 0.076,0.973 ± 0.1,0.96 ± 0.081,0.969 ± 0.043
NUDT21 (UniProt O43809),1.06 ± 0.025,1.55 ± 0.033,1.95 ± 0.11,2.06 ± 0.064,2.18 ± 0.1,2.25 ± 0.052,2.31 ± 0.1,2.213 ± 0.019
M0R042 and related entries (UniProt P04350),1.01 ± 0.024,1.01 ± 0.036,1.01 ± 0.089,0.962 ± 0.037,1.02 ± 0.034,0.934 ± 0.058,1.02 ± 0.018,0.955 ± 0.071
ARID1A (UniProt O14497),0.981 ± 0.048,1.02 ± 0.082,,,,,,
UniProt O43822 and related entries,1.04 ± 0.082,1.1 ± 0.023,,,,,,
DYNC1LI2 (UniProt O43237),0.976 ± 0.028,0.997 ± 0.068,0.947 ± 0.049,0.939 ± 0.049,0.905 ± 0.047,0.959 ± 0.14,0.92 ± 0.075,0.932 ± 0.032
SNAP23 (UniProt O00161),0.92 ± 0.058,0.911 ± 0.068,0.944 ± 0.077,0.947 ± 0.024,0.943 ± 0.021,1 ± 0.061,0.921 ± 0.02,0.883 ± 0.03
HMGN4 (UniProt O00479),0.999 ± 0.23,0.954 ± 0.52,0.97 ± 0.35,1.27 ± 0.44,1.22 ± 0.47,1.67 ± 0.86,1.63 ± 0.72,2.97 ± 2.3
NDUFA2 (UniProt O43678),0.862 ± 0.15,0.831 ± 0.12,0.882 ± 0.1,0.874 ± 0.16,0.924 ± 0.1,0.985 ± 0.21,0.876 ± 0.081,0.835 ± 0.13
SETD1A (UniProt O15047),0.963 ± 0.021,0.968 ± 0.063,0.962 ± 0.038,0.97 ± 0.018,0.979 ± 0.022,0.997 ± 0.044,0.969 ± 0.049,0.997 ± 0.046
PDLIM1 (UniProt O00151),0.983 ± 0.017,0.992 ± 0.028,0.963 ± 0.054,0.958 ± 0.031,0.944 ± 0.041,0.971 ± 0.016,0.939 ± 0.035,0.919 ± 0.036
